Test results reported in PMC12174339.

Chains of the proteins cited; added tags and fusions are not shown. Lines headed by an entry give the natural chain unless they say otherwise; changes in a name come on top. Residues count along the entry.
UniProt Q15388: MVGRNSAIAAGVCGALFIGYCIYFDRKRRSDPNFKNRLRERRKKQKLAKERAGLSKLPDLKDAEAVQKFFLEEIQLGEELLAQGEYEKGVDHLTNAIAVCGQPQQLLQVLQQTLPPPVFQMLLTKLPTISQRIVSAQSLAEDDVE
UniProt Q9UBR2: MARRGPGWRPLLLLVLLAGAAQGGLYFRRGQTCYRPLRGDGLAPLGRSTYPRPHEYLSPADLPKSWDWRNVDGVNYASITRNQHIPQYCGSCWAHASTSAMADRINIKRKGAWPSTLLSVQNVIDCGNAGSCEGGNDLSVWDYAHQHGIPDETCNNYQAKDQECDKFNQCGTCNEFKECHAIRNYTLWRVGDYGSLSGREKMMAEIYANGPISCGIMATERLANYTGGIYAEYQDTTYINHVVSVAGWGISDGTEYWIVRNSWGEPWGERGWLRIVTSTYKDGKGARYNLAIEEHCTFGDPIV
UniProt P40939, residues 37-763: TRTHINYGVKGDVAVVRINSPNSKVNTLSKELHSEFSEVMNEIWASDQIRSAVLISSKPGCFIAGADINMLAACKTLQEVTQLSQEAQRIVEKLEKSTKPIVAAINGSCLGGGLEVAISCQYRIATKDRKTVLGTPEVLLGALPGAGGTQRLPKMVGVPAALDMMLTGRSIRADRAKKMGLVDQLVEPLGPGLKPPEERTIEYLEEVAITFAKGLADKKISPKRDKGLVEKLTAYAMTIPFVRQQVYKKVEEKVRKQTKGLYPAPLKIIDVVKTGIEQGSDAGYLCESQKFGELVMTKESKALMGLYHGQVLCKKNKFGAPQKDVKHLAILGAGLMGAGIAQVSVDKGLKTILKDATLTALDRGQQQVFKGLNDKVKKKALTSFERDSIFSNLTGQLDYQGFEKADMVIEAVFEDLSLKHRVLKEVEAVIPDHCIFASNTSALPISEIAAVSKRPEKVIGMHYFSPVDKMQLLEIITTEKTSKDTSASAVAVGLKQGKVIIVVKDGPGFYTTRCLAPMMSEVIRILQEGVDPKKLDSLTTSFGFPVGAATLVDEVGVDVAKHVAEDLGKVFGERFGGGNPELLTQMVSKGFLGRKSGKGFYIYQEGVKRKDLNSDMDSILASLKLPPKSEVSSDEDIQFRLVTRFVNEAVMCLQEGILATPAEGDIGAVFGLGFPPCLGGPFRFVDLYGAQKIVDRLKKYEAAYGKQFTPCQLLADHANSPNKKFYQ
UniProt Q9UKK3: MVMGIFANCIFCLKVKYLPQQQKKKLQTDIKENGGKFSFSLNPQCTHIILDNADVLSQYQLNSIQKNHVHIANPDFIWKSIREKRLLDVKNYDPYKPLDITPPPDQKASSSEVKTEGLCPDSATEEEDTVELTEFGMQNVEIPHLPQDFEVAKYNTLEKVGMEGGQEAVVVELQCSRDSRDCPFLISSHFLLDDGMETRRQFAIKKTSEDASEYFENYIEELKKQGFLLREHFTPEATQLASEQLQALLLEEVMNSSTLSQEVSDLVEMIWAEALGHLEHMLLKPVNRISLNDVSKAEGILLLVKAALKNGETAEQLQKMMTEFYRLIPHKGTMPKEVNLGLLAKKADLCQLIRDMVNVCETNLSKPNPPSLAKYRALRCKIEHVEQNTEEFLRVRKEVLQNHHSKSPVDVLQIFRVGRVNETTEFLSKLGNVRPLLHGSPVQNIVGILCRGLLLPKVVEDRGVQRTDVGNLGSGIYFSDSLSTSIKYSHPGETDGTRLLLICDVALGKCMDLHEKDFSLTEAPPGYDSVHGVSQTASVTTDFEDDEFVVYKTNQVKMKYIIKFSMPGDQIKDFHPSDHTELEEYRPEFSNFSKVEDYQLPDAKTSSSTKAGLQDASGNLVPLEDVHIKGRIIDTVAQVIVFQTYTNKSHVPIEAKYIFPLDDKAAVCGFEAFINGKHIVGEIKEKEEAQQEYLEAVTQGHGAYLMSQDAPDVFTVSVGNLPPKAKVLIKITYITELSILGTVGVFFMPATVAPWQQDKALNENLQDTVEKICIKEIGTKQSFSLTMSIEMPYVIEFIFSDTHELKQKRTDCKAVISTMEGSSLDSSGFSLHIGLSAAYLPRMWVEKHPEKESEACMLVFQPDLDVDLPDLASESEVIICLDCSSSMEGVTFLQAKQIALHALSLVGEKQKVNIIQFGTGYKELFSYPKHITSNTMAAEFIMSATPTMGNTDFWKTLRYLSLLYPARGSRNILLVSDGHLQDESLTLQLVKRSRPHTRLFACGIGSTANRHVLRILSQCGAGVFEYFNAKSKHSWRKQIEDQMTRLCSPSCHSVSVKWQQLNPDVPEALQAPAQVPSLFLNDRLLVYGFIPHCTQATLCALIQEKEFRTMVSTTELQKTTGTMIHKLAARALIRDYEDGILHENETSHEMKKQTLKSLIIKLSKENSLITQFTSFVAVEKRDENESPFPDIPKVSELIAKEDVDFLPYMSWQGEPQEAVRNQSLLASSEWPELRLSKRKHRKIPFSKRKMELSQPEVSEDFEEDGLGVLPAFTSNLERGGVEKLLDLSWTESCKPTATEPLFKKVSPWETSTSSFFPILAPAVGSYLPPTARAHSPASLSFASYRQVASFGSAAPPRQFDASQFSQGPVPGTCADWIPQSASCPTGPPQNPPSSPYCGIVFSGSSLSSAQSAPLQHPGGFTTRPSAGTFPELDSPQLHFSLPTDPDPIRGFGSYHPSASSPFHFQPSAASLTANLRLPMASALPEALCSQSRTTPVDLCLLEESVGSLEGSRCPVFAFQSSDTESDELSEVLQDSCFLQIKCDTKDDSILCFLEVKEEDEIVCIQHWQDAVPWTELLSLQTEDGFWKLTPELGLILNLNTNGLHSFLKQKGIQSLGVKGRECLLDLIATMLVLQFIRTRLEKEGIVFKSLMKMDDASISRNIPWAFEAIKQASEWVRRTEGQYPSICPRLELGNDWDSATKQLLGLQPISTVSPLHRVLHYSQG

What follows are molecules tested against myc-APEX2-p62 (UniProt Q13501) (assay: proximity labelling; autophagosome content profiling: myc-APEX2-p62 in HCT116 WT, 13/3, 3/3, 5/4; biotin-phenol 30 min, 1 mM H2O2 1 min; cleared lysates treated with proteinase K, membrane-protected biotinylated proteins pulled down on streptavidin agarose, MS; BafA1 versus DMSO).

binding | Molecule
binds | CALCOCO1 (protein, UniProt Q9P1Z2 1-691) MEESPLSRAPSRGGVNFLNVARTYIPNTKVECHYTLPPGTMPSASDWIGIFKVEAACVRDYHTFVWSSVPESTTDGSPIHTSVQFQASYLPKPGAQLYQFRYVNRQGQVCGQSPPFQFREPRPMDELVTLEEADGGSDILLVVPKATVLQNQLDESQQERNDLMQLKLQLEGQVTELRSRVQELERALATARQEHTELMEQYKGISRSHGEITEERDILSRQQGDHVARILELEDDIQTISEKVLTKEVELDRLRDTVKALTREQEKLLGQLKEVQADKEQSEAELQVAQQENHHLNLDLKEAKSWQEEQSAQAQRLKDKVAQMKDTLGQAQQRVAELEPLKEQLRGAQELAASSQQKATLLGEELASAAAARDRTIAELHRSRLEVAEVNGRLAELGLHLKEEKCQWSKERAGLLQSVEAEKDKILKLSAEILRLEKAVQEERTQNQVFKTELAREKDSSLVQLSESKRELTELRSALRVLQKEKEQLQEEKQELLEYMRKLEARLEKVADEKWNEDATTEDEEAAVGLSCPAALTDSEDESPEDMRLPPYGLCERGDPGSSPAGPREASPLVVISQPAPISPHLSGPAEDSSSDSEAEDEKSVLMAAVQSGGEEANLLLPELGSAFYDMASGFTVGTLSETSTGGPATPTWKECPICKERFPAESDKDALEDHMDGHFFFSTQDPFTFE
binds | CALCOCO2 (protein, UniProt Q13137 1-446) MEETIKDPPTSAVLLDHCHFSQVIFNSVEKFYIPGGDVTCHYTFTQHFIPRRKDWIGIFRVGWKTTREYYTFMWVTLPIDLNNKSAKQQEVQFKAYYLPKDDEYYQFCYVDEDGVVRGASIPFQFRPENEEDILVVTTQGEVEEIEQHNKELCKENQELKDSCISLQKQNSDMQAELQKKQEELETLQSINKKLELKVKEQKDYWETELLQLKEQNQKMSSENEKMGIRVDQLQAQLSTQEKEMEKLVQGDQDKTEQLEQLKKENDHLFLSLTEQRKDQKKLEQTVEQMKQNETTAMKKQQELMDENFDLSKRLSENEIICNALQRQKERLEGENDLLKRENSRLLSYMGLDFNSLPYQVPTSDEGGARQNPGLAYGNPYSGIQESSSPSPLSIKKCPICKADDICDHTLEQQQMQPLCFNCPICDKIFPATEKQIFEDHVFCHSL

What follows are molecules tested against sequestosome 1 (SQSTM1/p62), endogenous (human (endogenous in HCT116)) (UniProt Q13501) (assay: affinity purification with mass spectrometry; endogenous p62 immunoprecipitated with a p62 antibody (Santa Cruz sc-28359) and Protein G magnetic beads from 1 mg whole-cell lysate of HCT116 WT, 13/3 and 5/4 (and of WT without p62 overexpression), untreated/DMSO or BafA1 (100 nM, 6 h); lysis in 150 mM NaCl, 50 mM Tris-HCl pH 7.5, 5% glycerol, 1% IGPAL-CA-630, 1 mM MgCl2; normal mouse IgG as control; on-bead tryptic digest, label-free MS, n = 4).

binding | Molecule
no binding | TOMM20 (translocase of outer mitochondrial membrane 20) (from UniProt Q15388 1-145)
binds | lysosomal protease CTSZ (from UniProt Q9UBR2)
binds | mitochondrial hydroxyacyl-CoA dehydrogenase trifunctional multienzyme complex subunit HADHA (from UniProt P40939 37-763)
binds | PARP4 (from UniProt Q9UKK3 1-1724)

These are yes or no findings as the source states them, for the method shown. In cells and extracts the contact can be indirect. These calls come from enrichment with a bait or labelling near it, and not all partners need be listed. For part of these data: A no says only that the protein was not detected with the bait.
